These are yes or no findings as the source states them, for the method shown. Some entries that bind do so weakly or less than the wild type.
Key:
[1] = biological target: native Amyloid beta in plaques on human Alzheimer's Disease brain sections (human) (UniProt P05067); test: in vitro immunohistochemistry on human AD brain sections
[2] = biological target: native Amyloid beta in plaques on human Alzheimer's Disease brain sections (human) (UniProt P05067); test: in vitro immunohistochemistry on brain sections; diffuse and CAA plaques

Sequences of proteins named here, by UniProt entry; tags and fusion partners are left off. Residues count along the entry.
UniProt P05067, residues 672-713: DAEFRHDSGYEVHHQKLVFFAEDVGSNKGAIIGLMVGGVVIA

B1: Abet0380-GL (germlined) IgG1-TM (antibody, V domains shown)
VH: EVQLLESGGGLVQPGGSLRLSCAASMGNFNYQTMWWVRQAPGKGLEWVSVIGKTNENIAYADSVKGRFTISRDNSKNTLYLQMNSLRAEDTAVYYCAREWMDHSRPYYYYGMDVWGQGTLVTVSS
VL: SYELTQPPSVSVSPGQTASITCSGHNLEDKFASWYQQKPGQSPVLVIYRDDKRPSGIPERFSASNSGHTATLTISGTQAMDEADYYCSSQDTVTRVFGGGTKLTVL
binding [1]: binds
binding [2]: binds

— patent US20190262327A1, “COMBINATION OF A BACE INHIBITOR AND AN ANTIBODY OR ANTIGEN-BINDING FRAGMENT FOR THE TREATMENT OF A DISORDER ASSOCIATED WITH THE ACCUMULATION OF AMYLOID BETA” (ASTRAZENECA AB, priority 2016, published 2019)
